At least one structure is not confirmed: it was looked up by name or label, or the drawing left a doubt. Some entries share one result that the patent states for a list of compounds.
Experiments:
[1] = biological target: T1, ATG4B (Homo sapiens, UniProt Q9Y4P1); experiment: ATG4B reporter yeast cell-based assay; settings: ATG4 reporter yeast cells, FIG. 2
T1 sequence (Q9Y4P1 1-393): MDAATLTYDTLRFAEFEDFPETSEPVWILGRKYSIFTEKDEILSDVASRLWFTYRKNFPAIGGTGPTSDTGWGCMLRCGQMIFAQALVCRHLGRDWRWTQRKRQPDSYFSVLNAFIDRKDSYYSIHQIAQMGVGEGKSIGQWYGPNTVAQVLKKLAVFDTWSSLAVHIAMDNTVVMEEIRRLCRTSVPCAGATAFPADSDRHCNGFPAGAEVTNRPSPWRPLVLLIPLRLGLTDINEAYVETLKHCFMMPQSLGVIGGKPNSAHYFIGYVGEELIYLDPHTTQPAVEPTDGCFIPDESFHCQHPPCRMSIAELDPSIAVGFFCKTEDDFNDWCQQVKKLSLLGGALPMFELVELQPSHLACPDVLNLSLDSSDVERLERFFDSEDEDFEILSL
Description: (§1) Quantitative results are shown in each panel (n=4). […] Bar: 100 μm.
FIGS. 55-58 show the characterization of yeast based ATG4B reporter assay for hts. (FIG. 55) Two-fold serial titrated yeast that harbored the LC3 reporter with wild type ATG4B (WT) or catalytic mutant (C74A) expression vector and reporter vector were seeded into a 384-well plate for 24 or 48 h. The substrate of […] X-gal (80 μg/ml) was included in the SD medium for the colorimetric assay. (FIG. 56) Beta-Glo was added into each well as (A) at 24 or 48 h to optimize the yeast concentration for the luminescent substrate. (FIG. 57) Yeast that harbored the wild type (WT) ATG4B and catalytic mutant (C74A) were used to determine the ratio of signal (WT)/background (C74A) and compare the sensitivity between the colorimetric and luminescent substrates. (FIG. 58) […] of yeast reporter cells (1.5×10^4 cells/ml) as previously described were seeded into a 384-well white plate for 24 h. Ten μl of the luminescent substrate Beta-Glo was added to each well, and the luminescent signal was read to determine the ATG4B activity. The luminescent signal between the wild type (WT) ATG4B and catalytic mutant (C/A) was used to determine the assay robustness (Z′ factor: 0.78).

[2] = biological target: T1, ATG4B; experiment: LC3-PLA2 biochemical ATG4 reporter assay; settings: for inhibition of the activity of ATG4B: biochemical reporter assay, FIG. 2
Excerpt: as §1

Row | SMILES | inhibition in the yeast cell-based assay [1] | inhibitory effect on ATG4B compared with tioconazole ([2]; LC3-PLA2 biochemical assay, FIG. 2 and 4) | inhibition of the activity of ATG4B [2] [%]
1 | CCN(CC)C(=O)/C(C#N)=C/c1cc(O)c(O)c([N+](=O)[O-])c1 [Entacapone] | not cellular assay | as effective as tioconazole | > 70
2 | Cc1cccc(Nc2ccccc2C(=O)O)c1C [Mefenamic acid] |  |  | > 70
3 | Cc1c(Cl)cccc1Nc1ccccc1C(=O)O [Tolfenamic acid] |  |  | > 70

— patent US10583123B2, “Method for the treatment of ATG4-related disorders” (National Tsing Hua University, priority 2017, dated 2020)
